Article PMC5760450, “FzlA, an essential regulator of FtsZ filament curvature, controls constriction rate during Caulobacter division” (Molecular Microbiology, 2017)

T1: FzlA fused to the T18 or T25 domain of adenylate cyclase (bacterial two-hybrid) (Caulobacter crescentus), A0A0H3
T1 chain: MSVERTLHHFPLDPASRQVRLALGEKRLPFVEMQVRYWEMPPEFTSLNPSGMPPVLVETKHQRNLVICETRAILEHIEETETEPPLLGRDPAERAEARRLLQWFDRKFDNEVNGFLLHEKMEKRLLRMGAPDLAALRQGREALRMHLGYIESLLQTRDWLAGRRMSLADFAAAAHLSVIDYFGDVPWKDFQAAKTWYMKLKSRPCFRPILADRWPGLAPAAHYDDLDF

T2: FzlA as two differently tagged copies in C. crescentus strain EG2452 (3xFLAG‐FzlA and mCherry‐FzlA) (Caulobacter crescentus), A0A0H3
T2 chain: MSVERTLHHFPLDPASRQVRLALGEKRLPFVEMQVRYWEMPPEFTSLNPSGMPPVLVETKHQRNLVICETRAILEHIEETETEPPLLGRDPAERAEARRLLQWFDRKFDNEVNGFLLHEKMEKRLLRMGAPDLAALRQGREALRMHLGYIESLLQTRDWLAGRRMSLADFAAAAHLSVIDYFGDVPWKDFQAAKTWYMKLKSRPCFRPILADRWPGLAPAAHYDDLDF


Key:
[1] = biological target: T1, FzlA fused to the T18 or T25 domain of …; test: two-hybrid; bacterial two-hybrid (T18 and T25 adenylate cyclase fusions) in E. coli BTH101, blue colonies on X-gal with 0.5 mM IPTG; settings: remark: other sources report otherwise
[2] = biological target: T2, FzlA as two differently tagged copies …; test: co-IP; C. crescentus EG2452 lysate without crosslinking; 3xFLAG-FzlA precipitated with anti-FLAG agarose, eluted with FLAG peptide, immunoblot; 20 mM HEPES pH 7.5, 100 mM NaCl, 20% glycerol, 1% IGEPAL CA-630, 0.5% sodium deoxycholate, 2 mM EDTA; settings: remark: other sources report otherwise

binding [1]	binding [2]	Binder
binds		FzlA fused to the T18 or T25 domain of adenylate cyclase (bacterial two-hybrid), A0A0H3CDY2 1-228 (protein) MSVERTLHHFPLDPASRQVRLALGEKRLPFVEMQVRYWEMPPEFTSLNPSGMPPVLVETKHQRNLVICETRAILEHIEETETEPPLLGRDPAERAEARRLLQWFDRKFDNEVNGFLLHEKMEKRLLRMGAPDLAALRQGREALRMHLGYIESLLQTRDWLAGRRMSLADFAAAAHLSVIDYFGDVPWKDFQAAKTWYMKLKSRPCFRPILADRWPGLAPAAHYDDLDF
	binds	FzlA as two differently tagged copies in C. crescentus strain EG2452 (3xFLAG‐FzlA and mCherry‐FzlA), A0A0H3CDY2 1-228 (protein) MSVERTLHHFPLDPASRQVRLALGEKRLPFVEMQVRYWEMPPEFTSLNPSGMPPVLVETKHQRNLVICETRAILEHIEETETEPPLLGRDPAERAEARRLLQWFDRKFDNEVNGFLLHEKMEKRLLRMGAPDLAALRQGREALRMHLGYIESLLQTRDWLAGRRMSLADFAAAAHLSVIDYFGDVPWKDFQAAKTWYMKLKSRPCFRPILADRWPGLAPAAHYDDLDF

Results are given in words; binding and its absence hold for the method and conditions named. A result given as binding can be weak or reduced; the word gives no strength. Tags and fused reporters may be left off the sequences shown. For some assays here: Binding seen in cells or lysates may run through a third protein.
